# Measured values taken from the supplement of paper PMC5407854, “Inhibitor of ppGalNAc-T3-mediated O-glycosylation blocks cancer cell invasiveness and lowers FGF23 levels” (eLife, 2017).
# The other results are listed elsewhere or left out. Small differences around the control level are noise.
# Tested on: ppGalNAc-T3 sensor
# Assay: T3 sensor activation Q score (MG/GFP ratio z-score vs DMSO controls) (SD units); higher = more sensor activation (inhibition of ppGalNAc-T3 glycosylation)
# Conditions: HEK293 sensor cells; 10 µM; 6 h
# Procedure: (§1)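 Cells were treated with compound at 10 uM for 6 h, then MG/GFP ratio was read by flow cytometry (10,000 cells per well, duplicate wells). Q = (R - R_neg)/SD_neg relative to DMSO vehicle controls; the signal rises when the glycosyltransferase is inhibited.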
row,SMILES,T3 sensor activation Q score
1,O=[N+]([O-])c1cccc(CN2CCC(O)CC2)c1,0.47
2,c1ccc2c(c1)nnn1c3ccccc3nc21,-0.415
3,COc1nc(N(C)C)nc(N(C)C)n1,-0.23
4,Cc1ccc(OCC(O)CNC(C)C)cc1 (stereo not drawn),0.305
5,COc1ccc(NCc2ccccc2)cc1,-0.055
6,Cc1ccc2[nH]c3nc(NN)nnc3c2c1,-0.33
7,COc1ccc(-c2nnc(N)o2)cc1,0.4
8,COc1c[nH]n(-c2ccccc2)c(=O)c1=O,1.12
9,CC1=CCC(C(=O)O)C(C(=O)O)C1 (stereo not drawn),1.15
10,O=C(C(c1ccccc1)c1ccccc1)N1CCCC1,-0.3
11,CN1CCN(NC(=O)c2sc3ccccc3c2Cl)CC1,-0.03
12,CC(=O)Nc1ccc(S(=O)(=O)Nc2cccc(F)c2)cc1,0.605
13,CCCC(C)NC(=O)c1ccc(Cl)cc1[N+](=O)[O-] (stereo not drawn),-0.3
14,O=C(O)CCCC[C@H]1SC[C@H]2NC(=O)N[C@H]21,0.945
15,CCc1nc(C)cc(CN(C)C)c1O,0.265
16,COc1ccccc1NC1=CC(=O)CC(c2ccccc2)C1 (stereo not drawn),-0.51
17,CC(=O)c1ccc(NC2=C(N3CCCC3)C(=O)c3ccccc3C2=O)cc1,0.125
18,CN(C)C1=C(Nc2ccc(F)c(F)c2)C(=O)c2ccccc2C1=O,-0.225

# Tested on: ppGalNAc-T2 sensor
# Assay: T2 sensor activation Q score (MG/GFP ratio z-score vs DMSO controls) (SD units); higher = more sensor activation (inhibition of ppGalNAc-T2 glycosylation)
# Conditions: HEK293 sensor cells; 10 µM; 6 h
# Procedure: as §1
row,SMILES,T2 sensor activation Q score
1,Cc1cccc(N2C(=O)CC(N3CCN(c4ccc(Cl)cc4)CC3)C2=O)c1 (stereo not drawn),-0.145
2,Clc1ccccc1CN1CCOCC1,0.745
3,O=C(c1ccc(Cl)cc1Cl)N1CCCc2ccccc21,1.09
4,COc1nc(Nc2ccc(C)cc2)nc(OC)n1,-0.245
5,O=C(O)CN1C(=O)c2ccc(Br)cc2C1=O,0.195
6,CCN1CCN(C(=O)CCCOc2ccc(Cl)cc2Cl)CC1,0.005
7,CCOC(=O)N1CCN(Cc2cc(C)ccc2C)CC1,0.665
8,O=C1Cc2ccccc2C(c2ccccc2Cl)N1 (stereo not drawn),0.47
9,NNC(=O)CCc1ccccc1O,-1.76
10,O=C1CC(N2CCN(c3ccc(F)cc3)CC2)C(=O)N1c1cccc(Cl)c1 (stereo not drawn),-0.22
11,Cc1ccc2nc(-c3ccc(Cl)cc3)cn2c1,-1.3
12,CCc1ccc(CN2CCN(c3ccccn3)CC2)cc1,0.365
13,CN1CCC(NCc2ccccc2F)CC1,-0.065
14,CCCCOc1ccc(CN2CCN(c3ccccc3F)CC2)cc1,0.075
15,COc1ccc(OC)c(Nc2cc(-c3ccccc3)nc(N)n2)c1,1.58
16,CCN(CC)CC1CCc2c(c3ccccc3n2C)C1=O (stereo not drawn),0.515
17,Cc1ccc(OCC(O)CN(C)C2CCCCC2)cc1C (stereo not drawn),-0.625
18,NS(=O)(=O)c1ccc(NC(=O)c2ccc(-c3ccccc3)cc2)cc1,0.035
19,CC(C)c1ccc(S(=O)(=O)NC(C)(C)C)cc1,-0.77
20,COc1cc(CN2CCN(C/C=C/c3ccccc3)CC2)cc(OC)c1O,0.195

# Part of the list above in another layout:
row	SMILES	T2 sensor activation Q score
14	CCCCOc1ccc(CN2CCN(c3ccccc3F)CC2)cc1	0.075
15	COc1ccc(OC)c(Nc2cc(-c3ccccc3)nc(N)n2)c1	1.58
16	CCN(CC)CC1CCc2c(c3ccccc3n2C)C1=O (stereo not drawn)	0.515
17	Cc1ccc(OCC(O)CN(C)C2CCCCC2)cc1C (stereo not drawn)	-0.625

# Later entries:

row,SMILES,T2 sensor activation Q score
1,Cc1ccccc1NS(=O)(=O)c1ccc(Cl)cc1,-0.875
2,Cc1ccc(OCC(O)CN2CCN(c3ccccc3)CC2)c(C)c1 (stereo not drawn),-0.645
3,O=[N+]([O-])c1cccc(CN2CCC(O)CC2)c1,0.69
4,c1ccc2c(c1)nnn1c3ccccc3nc21,-0.845
5,COc1nc(N(C)C)nc(N(C)C)n1,1.4
6,Cc1ccc(OCC(O)CNC(C)C)cc1 (stereo not drawn),-0.275
7,COc1ccc(NCc2ccccc2)cc1,0.405
8,Cc1ccc2[nH]c3nc(NN)nnc3c2c1,-0.675
9,COc1ccc(-c2nnc(N)o2)cc1,-1.19
10,COc1c[nH]n(-c2ccccc2)c(=O)c1=O,1.15
11,CC1=CCC(C(=O)O)C(C(=O)O)C1 (stereo not drawn),-0.305
12,O=C(C(c1ccccc1)c1ccccc1)N1CCCC1,-1.25
13,CN1CCN(NC(=O)c2sc3ccccc3c2Cl)CC1,0.305
14,CC(=O)Nc1ccc(S(=O)(=O)Nc2cccc(F)c2)cc1,2
15,CCCC(C)NC(=O)c1ccc(Cl)cc1[N+](=O)[O-] (stereo not drawn),-0.21
16,O=C(O)CCCC[C@H]1SC[C@H]2NC(=O)N[C@H]21,-0.145
17,CCc1nc(C)cc(CN(C)C)c1O,0.06
18,COc1ccccc1NC1=CC(=O)CC(c2ccccc2)C1 (stereo not drawn),0.01
19,CC(=O)c1ccc(NC2=C(N3CCCC3)C(=O)c3ccccc3C2=O)cc1,0.175
20,CN(C)C1=C(Nc2ccc(F)c(F)c2)C(=O)c2ccccc2C1=O,-0.265
